Results are given in words; binding and its absence hold for the method and conditions named. In cells and extracts the contact can be indirect.
Target: increased sodium tolerance 1 (IST1) (human (endogenous in moDCs)) (UniProt P53990)
Test: co-IP; endogenous IST1 immunoprecipitated from moDC lysates as for the mass spectrometry; Western blot probed for IST1 and for integrin β2 (goat anti-integrin beta 2/CD18, 1:1,000)

With “integrin β2 (from UniProt P05107 23-769) (receptor)” the binding was “no binding”.
